# Experimental data reported in PubChem BioAssay AID588590 (National Center for Advancing Translational Sciences (NCATS), 2011).
# Chains of the proteins cited; added tags and fusions are not shown. Lines headed by an entry give the natural chain unless they say otherwise; changes in a name come on top.
# UniProt Q9UNA4: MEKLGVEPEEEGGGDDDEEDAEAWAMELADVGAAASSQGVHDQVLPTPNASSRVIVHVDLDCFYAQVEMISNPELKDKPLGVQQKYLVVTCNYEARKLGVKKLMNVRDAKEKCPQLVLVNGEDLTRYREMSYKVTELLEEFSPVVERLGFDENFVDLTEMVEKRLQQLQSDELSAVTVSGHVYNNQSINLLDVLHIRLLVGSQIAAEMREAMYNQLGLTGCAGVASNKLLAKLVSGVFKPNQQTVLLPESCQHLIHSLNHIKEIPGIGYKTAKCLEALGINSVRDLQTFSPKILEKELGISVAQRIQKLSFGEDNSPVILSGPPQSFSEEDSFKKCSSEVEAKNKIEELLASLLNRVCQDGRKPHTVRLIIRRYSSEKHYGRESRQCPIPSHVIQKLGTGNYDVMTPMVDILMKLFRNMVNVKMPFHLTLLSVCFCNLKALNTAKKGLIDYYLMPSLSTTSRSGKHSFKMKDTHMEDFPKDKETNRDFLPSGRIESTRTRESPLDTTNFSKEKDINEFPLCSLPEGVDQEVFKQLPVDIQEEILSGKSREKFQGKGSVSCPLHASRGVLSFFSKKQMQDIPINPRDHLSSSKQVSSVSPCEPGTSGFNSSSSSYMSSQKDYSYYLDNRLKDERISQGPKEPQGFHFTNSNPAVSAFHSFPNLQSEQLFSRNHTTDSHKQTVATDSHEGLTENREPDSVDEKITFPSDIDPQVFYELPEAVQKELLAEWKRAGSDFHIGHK
# Screen size: about 390,000 compounds; about 4,000 (1%) were called active. The inconclusive results got no clear call from the source; some entries with a clear call stand among them for comparison. The call rests on the fitted dose curve; in most records, active means well fitted inhibition curve with a large enough effect; inconclusive means small, poorly fitted or top-dose-only effect, or another doubt; inactive means no such curve, though single readings can be large or run the other way. Potencies of inconclusive entries are doubtful fits and often do not repeat.
# Target: DNA polymerase iota (Homo sapiens) (UniProt Q9UNA4)
# Assay: qHTS for Inhibitors of Polymerase Iota
# Settings: Pol iota fluorescent replication assay, 10 min; series mostly up to 115 µM
# Method in brief: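 Pol iota at 10 nM preincubated 15 min with compounds at room temperature; reaction started with fluorescent substrate, 50 nM final. Fluorescence read kinetically at 0 and 10 min; buffer-only wells as negative control.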
# Potency means the concentration at half of the fitted maximal effect.
row,SMILES,Potency
1,CC[N+](C)(C)c1ccc(/C=C/c2ccnc3ccccc23)cc1,active: 79.4 µM
2,O=C(c1cc2c(s1)CCCC2)N1CCN(C(=O)C2CCCO2)CC1 (stereo unspecified),"inconclusive: 17.8 µM [inhibitor, partial curve, poor fit]"
3,CCCN(C(=O)c1cc(S(=O)(=O)N(C)c2ccccc2OC)ccc1C)C1CCS(=O)(=O)C1 (stereo unspecified),inactive
4,O=C(NCc1ccccc1)C(=O)Nc1c2c(nn1-c1ccccc1)CSC2,"inconclusive: 89.1 µM [inhibitor, single point]"
5,Cc1ccc(SCC(=O)Nc2ccc3oc(-c4cccc(Cl)c4)nc3c2)cc1,inactive
6,Nc1ncnc2c1ncn2[C@H]1CC[C@@H](CO)O1,"inconclusive: 79.4 µM [inhibitor, single point]"
7,Cc1sc2nc3c(SC(C)C(=O)O)cc(C(=O)c4ccccc4O)cn3c(=O)c2c1C (stereo unspecified),"inconclusive: 28.2 µM [inhibitor, single point]"
8,Cc1ccc(C(C(=O)NC(C)(C)C)N(C(=O)c2csnn2)c2ccccc2F)o1 (stereo unspecified),inactive
9,NC1=NN(c2ccccc2)C(=O)C1,"inconclusive: 31.6 µM [inhibitor, partial curve, poor fit]"
10,Cc1ccc(/C=N/NC(=O)CNC(=O)c2ccc(S(=O)(=O)N3CCCC3)cc2)o1,inactive
11,Cn1c(=O)c2cc(S(=O)(=O)NC(C(=O)NCc3cccnc3)c3ccccc3)ccc2n(C)c1=O (stereo unspecified),"inconclusive: 89.1 µM [inhibitor, single point]"
12,CN(C)c1ccc(/C=C2/CCc3ccccc32)cc1,inactive
13,CCc1ccccc1NC(=O)Cn1c(SCc2ccc(F)cc2)nc2ccncc21,"inconclusive: 89.1 µM [inhibitor, single point]"
14,CC(=O)NN1C(=O)c2ccccc2NC1c1ccccc1 (stereo unspecified),"inconclusive: 89.1 µM [inhibitor, partial curve, poor fit]"
15,Cc1noc(N)c1C(=O)Nc1ccc(F)c(Cl)c1,"inconclusive: 14.1 µM [inhibitor, single point]"
16,CCN(CC)CCOC(=O)c1ccc(NC(=O)CCCN2C(=O)/C(=C\c3cccs3)SC2=S)cc1,"inconclusive: 50.1 µM [inhibitor, partial curve, poor fit]"
17,Cc1cc(N2C(=O)C(=O)/C(=C(/O)c3ccc(F)cc3)C2c2cccc(Br)c2)no1 (stereo unspecified),"inconclusive: 39.8 µM [inhibitor, single point]"
18,C[n+]1cccc(Br)c1,inactive
19,CN(C)CCNC(=O)C(=O)Nc1cc2c3c(c1)CCC(=O)N3CCC2,inactive
20,O=C(COC(=O)c1ccccc1SCC(=O)NC1CCS(=O)(=O)C1)NC1CCS(=O)(=O)C1 (stereo unspecified),inactive
21,Cc1ccc(S(=O)(=O)N(CCc2ccccc2)CC(=O)Nc2ccc(Br)cc2)cc1,"inconclusive: 79.4 µM [inhibitor, single point]"
22,COC(=O)c1c(-c2ccc3ccccc3c2)csc1NC(=O)Cc1ccc(OC)c(OC)c1,"inconclusive: 39.8 µM [inhibitor, single point]"

# In a second layout: 3 of the compounds above.
row	SMILES	Potency
8	Cc1ccc(C(C(=O)NC(C)(C)C)N(C(=O)c2csnn2)c2ccccc2F)o1 (stereo unspecified)	inactive
9	NC1=NN(c2ccccc2)C(=O)C1	inconclusive: 31.6 µM [inhibitor, partial curve, poor fit]
10	Cc1ccc(/C=N/NC(=O)CNC(=O)c2ccc(S(=O)(=O)N3CCCC3)cc2)o1	inactive

# (continued)

row,SMILES,Potency
1,NC(=O)c1ccsc1NC(=O)CSc1nnc(Nc2ccccc2)s1,"inconclusive: 14.1 µM [inhibitor, partial curve, poor fit]"
2,CCn1c(=O)c(C(=O)CN(C)Cc2cccc(OC)c2OC)c(N)n(Cc2ccccc2)c1=O,"inconclusive: 28.2 µM [inhibitor, partial curve, poor fit]"
3,Cn1c(SCC(=O)Nc2ccccc2F)nnc1C1CCCCC1,"inconclusive: 35.5 µM [inhibitor, single point]"
4,Cc1ccnc(NC(=O)CSc2cc(=O)n(C)c3ccccc23)c1,"inconclusive: 39.8 µM [inhibitor, single point]"
5,CCOc1ccc(N2CC(NC(=O)C3CC3)CC2=O)cc1 (stereo unspecified),"inconclusive: 35.5 µM [inhibitor, single point]"
6,CCCOc1ccc(CSc2ncn[nH]2)cc1,"inconclusive: 39.8 µM [inhibitor, partial curve, poor fit]"
7,COc1cc(NC(=O)Cn2c(-c3cncs3)nc3ccccc32)cc(OC)c1OC,inactive
8,N=C1/C(=C/c2cccs2)C(=O)N=C2SN=C(SCc3ccccc3)N12,"inconclusive: 14.1 µM [inhibitor, full curve, poor fit]"
9,CN(C)/C=C/C1=C([N+](=O)[O-])C(c2cccc([N+](=O)[O-])c2)NC(=O)N1 (stereo unspecified),"inconclusive: 28.2 µM [inhibitor, single point]"
10,O=C(Nc1ccc2nc(-c3ccccc3)[nH]c2c1)c1ccco1,"inconclusive: 79.4 µM [inhibitor, single point]"
11,Cc1cccc(C(=O)Oc2c(Sc3ccccc3)c(C)nn2C(C)(C)C)c1,inactive
12,Cc1ccc(NC(=O)C2CCCN2C(=O)OCc2ccccc2)cc1F (stereo unspecified),"inconclusive: 25.1 µM [inhibitor, full curve, poor fit]"
13,Cc1ccc(CN2CCCn3nc(C(=O)NCCc4cccc(C)c4)cc3C2=O)cc1,"inconclusive: 39.8 µM [inhibitor, partial curve, poor fit]"
14,CC(C)C1Oc2ccccc2N(CC(=O)N(Cc2ccncc2)Cc2ccco2)C1=O (stereo unspecified),"inconclusive: 39.8 µM [inhibitor, single point]"
15,C/C(=N\Nc1ccc(F)cc1F)c1ccccc1O,inactive
16,CCc1nc(SC)ncc1C(=O)N1CCN(c2cc(C)ccc2C)CC1,inactive
17,COc1cc(/C=c2\s/c(=C\C(=O)C(C)(C)C)[nH]c2=O)cc(OC)c1OC,inactive
18,CCc1ccc(OC(=O)/C=C/c2ccco2)cc1,"inconclusive: 39.8 µM [inhibitor, partial curve]"
19,CC(C)(C)c1ccc(S(=O)(=O)N2CCN(c3nc(-c4cccs4)nc4ccccc34)CC2)cc1,"inconclusive: 89.1 µM [inhibitor, single point]"
20,COc1ccc(-c2onc3ccc(C(=O)/C=C/N(C)C)cc23)cc1,"inconclusive: 6.31 µM [inhibitor, full curve, poor fit]"
21,O=C(O)c1c2c(nc3ccc(S(=O)(=O)N4CCC(C(=O)N5CCCCC5)CC4)cc13)CCCC2,"inconclusive: 31.6 µM [inhibitor, partial curve, poor fit]"
22,COc1ccc(/C=N/NC(=O)CCCOc2ccc(Cl)cc2Cl)cc1[N+](=O)[O-],"inconclusive: 22.4 µM [inhibitor, partial curve, poor fit]"

row,SMILES,Potency
1,O=C(c1ccc(COc2ccc(F)cc2)o1)n1cc(Br)cn1,"inconclusive: 28.2 µM [inhibitor, partial curve, poor fit]"
2,Cc1ccc(NC(=O)CSc2nc(-c3ccco3)nc3cc(=O)[nH]n23)cc1,"inconclusive: 79.4 µM [inhibitor, single point]"
3,COc1ccc(CC(=O)OCC(=O)NCc2ccc(C)cc2)cc1OC,inactive
4,O=C(OCn1ncc(Cl)c(Cl)c1=O)c1cccc(C(F)(F)F)c1,"inconclusive: 15.8 µM [inhibitor, full curve, poor fit]"
5,COc1ccc(/C=N/N2C(=O)CSC2=S)cc1Br,"inconclusive: 7.08 µM [inhibitor, single point]"
6,Cc1ccc(C)c(NS(=O)(=O)c2ccc(NC(=O)CSc3ccc(Cl)cc3)cc2)c1,inactive
7,O=C(Nc1nc(-c2nc3ccccc3s2)cs1)c1ccco1,"inconclusive: 89.1 µM [inhibitor, single point]"
8,CCCCN(C(=O)CN1CC(C)OC(C)C1)c1c(N)n(CC(C)C)c(=O)[nH]c1=O (stereo unspecified),inactive
9,COc1cc(NC(=O)N2CCC(CN3CCCCCC3)CC2)cc(OC)c1OC,inactive
10,Cc1cc(=O)[nH]c(-n2[nH]c(C)cc2=O)n1,"inconclusive: 20 µM [inhibitor, partial curve, poor fit]"
11,CCn1cc(C(=O)N2CCN(c3cc(Cl)ccc3C)CC2)c(=O)c2cc(S(=O)(=O)N3CCCCC3)ccc21,"inconclusive: 79.4 µM [inhibitor, single point]"
12,O=C(CSc1nc(-c2ccccc2)nc2cc(=O)[nH]n12)Nc1ccccc1,"inconclusive: 79.4 µM [inhibitor, single point]"
13,O=C(COC(=O)c1ccc([N+](=O)[O-])s1)Nc1ccc(F)cc1,"inconclusive: 50.1 µM [inhibitor, partial curve]"
14,O=[N+]([O-])c1cc(S(=O)(=O)Nc2ccccc2)ccc1Nc1ccccc1,"inconclusive: 14.1 µM [inhibitor, full curve, poor fit]"
15,COC(=O)c1ccc(C2NC(=O)c3c(sc(C)c3C)N2)cc1 (stereo unspecified),"inconclusive: 79.4 µM [inhibitor, single point]"
16,O=C(CCc1ccccc1)NNC(=O)c1ccc(NC(=O)c2ccccc2)cc1,"inconclusive: 50.1 µM [inhibitor, partial curve]"
17,O=C1Nc2ccc(Br)cc2/C1=C/C1CC=CCC1 (stereo unspecified),"inconclusive: 22.4 µM [inhibitor, partial curve, poor fit]"
18,O=C(CCS(=O)(=O)c1cc(Br)cc2c1N(C(=O)C1CC1)CC2)NCc1ccco1,"inconclusive: 20 µM [inhibitor, full curve]"
19,Cc1ccc(CCN2CC(C(=O)NCc3cccnc3)CC2=O)cc1 (stereo unspecified),"inconclusive: 6.31 µM [inhibitor, full curve, poor fit]"
20,CCn1c(SCC(=O)Nc2ccc3c(c2)c2ccccc2n3CC)nnc1-c1ccco1,"inconclusive: 8.91 µM [inhibitor, full curve, poor fit]"
21,O=C(NCCc1ccccc1)c1ccc(Cn2c(SCc3ccccc3)nc3cccnc32)cc1,inactive
22,COc1cccc(NC(=O)Cn2nc(C)c3c(C)n(-c4ccccc4)nc3c2=O)c1,active: 89.1 µM
